According to PubChem BioAssay AID186 (DTP/NCI, 2004):
Values are animals surviving of animals treated; these mice carried no tumour. Survivors were counted at the toxicity check, usually on the fifth day, unless a day is given; later deaths do not show. Schedules are NCI's codes, taken here to give the interval after Q, in days (D) or hours (H), and the number of doses after X. Signs of the kind (2×) count equal records among those shown. Some doses were run more than once; their values stand side by side, smallest first.

Tested on: B6D2F1 mice, nontumored toxicity test, survival
Experiment: NCI In Vivo Anticancer Drug Screen. Data for tumor model Nontumored Animals (Toxicity Test) in B6D2F1 (BDF1) mice

## N[C@@H](Cc1ccc(N(CCCl)CCCl)cc1)C(=O)O
dose: 0.7 mg/kg/injection, schedule: Q01DX009 (ip), vehicle: saline
  survivor count: 5 of 5
dose: 1.0 mg/kg/injection, schedule: Q04DX003 (ip), vehicle: water
  survivor count: 4 of 4
dose: 1.2 mg/kg/injection, schedule: Q01DX009 (ip), vehicle: saline
  survivor count: 5 of 5
dose: 2.0 mg/kg/injection, schedule: Q01DX009 (ip), vehicle: saline
  survivor count: 5 of 5
dose: 2.0 mg/kg/injection, schedule: Q04DX003 (ip), vehicle: water
  survivor count: 4 of 4
dose: 3.3 mg/kg/injection, schedule: Q01DX009 (ip), vehicle: saline
  survivor count: 5 of 5
dose: 4.0 mg/kg/injection, schedule: Q04DX003 (ip), vehicle: water
  survivor count: 4 of 4
dose: 6.6 mg/kg/injection, schedule: Q01DX001 (ip), vehicle: Klucel (hydroxypropylcellulose) (HPC)
  survivor count: 10 of 10
dose: 8.0 mg/kg/injection, schedule: Q04DX003 (ip), vehicle: water
  survivor count: 4 of 4
dose: 10.0 mg/kg/injection, schedule: Q01DX001 (ip), vehicle: Klucel (hydroxypropylcellulose) (HPC)
  survivor count: 10 of 10
dose: 10.0 mg/kg/injection, schedule: Q01DX001 (ip), vehicle: saline
  survivor count: 10 of 10 (2×)
dose: 12.5 mg/kg/injection, schedule: Q01DX001 (ip), vehicle: saline
  survivor count: 10 of 10 (2×)
dose: 15.0 mg/kg/injection, schedule: Q01DX001 (ip), vehicle: Klucel (hydroxypropylcellulose) (HPC)
  survivor count: 10 of 10
dose: 15.0 mg/kg/injection, schedule: Q01DX001 (ip), vehicle: saline
  survivor count: 10 of 10 (2×)
dose: 18.0 mg/kg/injection, schedule: Q01DX001 (ip), vehicle: Klucel (hydroxypropylcellulose) (HPC)
  survivor count: 10 of 10
dose: 20.0 mg/kg/injection, schedule: Q01DX001 (ip), vehicle: saline
  survivor count: 10 of 10
dose: 22.5 mg/kg/injection, schedule: Q01DX001 (ip), vehicle: Klucel (hydroxypropylcellulose) (HPC)
  survivor count: 6 of 8 and 10 of 10
dose: 25.5 mg/kg/injection, schedule: Q01DX001 (ip), vehicle: Klucel (hydroxypropylcellulose) (HPC)
  survivor count: 6 of 8 and 9 of 9

## C1CN1c1nc(N2CC2)nc(N2CC2)n1
dose: 0.67 mg/kg/injection, schedule: Q01DX005 (ip), vehicle: saline
  survivor count: 10 of 10
dose: 1.0 mg/kg/injection, schedule: Q01DX005 (ip), vehicle: saline
  survivor count: 10 of 10
dose: 1.5 mg/kg/injection, schedule: Q01DX005 (ip), vehicle: saline
  survivor count: 9 of 9
